Some of these results come from one statement about several compounds together.
Assays:
OVCAR-3 cells = assay: OVCAR-3 cell proliferation (CellTiter-Glo); type: cell-based
Source text: OVCAR-3 was used as the cell line to model for ovarian cancer in vitro and in vivo. This cell line was obtained from ATCC (Catalog #HTB-161) and is an adenocarcinoma line from the malignant ascites of a patient with progressive adenocarcinoma of the ovary and embodies a preclinical model of high-grade, serous ovarian cancer (HGSOC). OVCAR-3 has been deemed an appropriate model system in which to study drug resistance in ovarian cancer, and the presence of hormone receptors should be useful for the evaluation of hormonal therapy. OVCAR-3 is resistant to clinically relevant concentrations of adriamycin, melphalan and cisplatin.
(§1) Compounds 1-5 were tested at different concentrations (from 4 μM to 126.4 pM; 0.5 log serial dilutions) for their ability to inhibit the proliferation of OVCAR-3 cells. Cells were grown in ATCC-formulated RPMI-1640 Medium (ATCC 30-2001)+10% FBS. The cells were cultured at 37° C. in a humidified chamber in the presence of 5% CO2. Proliferation assays were conducted over a 72 hour time period.
(§2) Cells were cultured and maintained as described above, with cells always fed on the day prior to assay. Assays were run with a 2 hour compound exposure followed by a washout and then a 72 hour proliferation time or exposed to the test compounds for 72 hours with no washout of compound. DMSO was used as a control in all wells not receiving test compound and DMSO wells were used for plate normalization. Proliferation and survival of cells was quantified based on the amount of total ATP following cell lysis as determined by using a standard assay kit used according to manufacturer's instructions. Experiments were performed in the same media used by each cell type for growth and maintenance. Cells (5×10^4) were plated in 96 well plates for compound exposure. CellTiter-Glo® (Promega Corporation, Madison, Wis. USA) was used to assess the anti-proliferative effects of the compounds following manufacturer's directions and utilizing the reagents supplied with the CellTiter-Glo® kit.

HCC70 cells = assay: HCC70 cell proliferation (CellTiter-Glo); type: cell-based
Experimental: HCC70 was the cell line used as a model of triple-negative breast cancer (TNBC). This cell line was obtained from ATCC and was initiated from a primary ductal carcinoma in 1992 (Catalog #CRL-2315; mammary gland primary ductal carcinoma). The HCC-70 tumor cell line was maintained in vitro as a monolayer culture in RPMI-1640 medium supplemented with 10% heat inactivated fetal bovine serum at 37° C. in an atmosphere of 5% CO2 in air.
as §1, with “Representative compounds” for “Compounds 1-5”, “HCC70” for “OVCAR-3”
as §2

[1] = OVCAR-3 (no washout), exposed for 72 hours
[2] = OVCAR-3 (w/washout), 2 hour exposure, washout, 72 hour proliferation
[3] = HCC70 (no washout), exposed for 72 hours
[4] = HCC70 (w/washout), 2 hour exposure, washout, 72 hour proliferation

SMILES	Inhibition of proliferation of OVCAR3 cells (IC50 in M) (OVCAR-3 cells; [1])	Inhibition of proliferation of OVCAR3 cells (IC50 in M) (OVCAR-3 cells; [2])	Inhibition of Proliferation of HCC70 Cells (IC50 in M) (HCC70 cells; [3])	Inhibition of Proliferation of HCC70 Cells (IC50 in M) (HCC70 cells; [4])
C=CC(=O)N(C)c1ccc(C(=O)N2CC[C@@H](Nc3ncc(Cl)c(OC)n3)C2)cc1 [Compound 2, (R)-N-(4-(3-((5-chloro-4-methoxypyrimidin-2-yl)amino)pyrrolidine-1-carbonyl)phenyl)-N-methylacrylamide]	low IC50 values	Inhibition of proliferation continued	low IC50 values	Inhibition of proliferation continued
C#Cc1cnc(N[C@@H]2CCN(C(=O)c3ccc(NC(=O)C=C)cc3)C2)nc1 [Compound 5, (R)-N-(4-(3-((5-ethynylpyrimidin-2-yl)amino)pyrrolidine-1-carbonyl)phenyl)acrylamide]	low IC50 values	Inhibition of proliferation continued	low IC50 values	Inhibition of proliferation continued
C=CC(=O)Nc1ccc(C(=O)N2CC[C@@H](Nc3ncc(Cl)c(OC)n3)C2)cc1 [Compound 1, (R)-N-(4-(3-((5-chloro-4-methoxypyrimidin-2-yl)amino)pyrrolidine-1-carbonyl)phenyl)acrylamide]	low IC50 values	Inhibition of proliferation continued	low IC50 values	Inhibition of proliferation continued
C=CC(=O)Nc1ccc(C(=O)N2CC[C@@H](Nc3ncc(C#N)cn3)C2)cc1 [Compound 4, (R)-N-(4-(3-((5-cyanopyrimidin-2-yl)amino)pyrrolidine-1-carbonyl)phenyl)acrylamide]	low IC50 values	Inhibition of proliferation continued	low IC50 values	Inhibition of proliferation continued
C=CC(=O)Nc1ccc(C(=O)N2CC[C@@H](Nc3ncc(Cl)cn3)C2)cc1 [Compound 3, (R)-N-(4-(3-((5-chloropyrimidin-2-yl)amino)pyrrolidine-1-carbonyl)phenyl)acrylamide]	low IC50 values	Inhibition of proliferation continued	low IC50 values	Inhibition of proliferation continued

— US20230074545A1, “TREATMENT OF CANCER WITH CDK12/13 INHIBITORS” (Kinnate Biopharma Inc., priority 2019, published 2023)
